Source: paper PMC3991325
These are yes or no findings as the source states them, for the method shown. Binding seen in cells or lysates may run through a third protein. A yes stands for co-enrichment or nearness to the bait. Other partners may have been found.

Chains of the proteins cited; added tags and fusions are not shown.
UniProt Q05022: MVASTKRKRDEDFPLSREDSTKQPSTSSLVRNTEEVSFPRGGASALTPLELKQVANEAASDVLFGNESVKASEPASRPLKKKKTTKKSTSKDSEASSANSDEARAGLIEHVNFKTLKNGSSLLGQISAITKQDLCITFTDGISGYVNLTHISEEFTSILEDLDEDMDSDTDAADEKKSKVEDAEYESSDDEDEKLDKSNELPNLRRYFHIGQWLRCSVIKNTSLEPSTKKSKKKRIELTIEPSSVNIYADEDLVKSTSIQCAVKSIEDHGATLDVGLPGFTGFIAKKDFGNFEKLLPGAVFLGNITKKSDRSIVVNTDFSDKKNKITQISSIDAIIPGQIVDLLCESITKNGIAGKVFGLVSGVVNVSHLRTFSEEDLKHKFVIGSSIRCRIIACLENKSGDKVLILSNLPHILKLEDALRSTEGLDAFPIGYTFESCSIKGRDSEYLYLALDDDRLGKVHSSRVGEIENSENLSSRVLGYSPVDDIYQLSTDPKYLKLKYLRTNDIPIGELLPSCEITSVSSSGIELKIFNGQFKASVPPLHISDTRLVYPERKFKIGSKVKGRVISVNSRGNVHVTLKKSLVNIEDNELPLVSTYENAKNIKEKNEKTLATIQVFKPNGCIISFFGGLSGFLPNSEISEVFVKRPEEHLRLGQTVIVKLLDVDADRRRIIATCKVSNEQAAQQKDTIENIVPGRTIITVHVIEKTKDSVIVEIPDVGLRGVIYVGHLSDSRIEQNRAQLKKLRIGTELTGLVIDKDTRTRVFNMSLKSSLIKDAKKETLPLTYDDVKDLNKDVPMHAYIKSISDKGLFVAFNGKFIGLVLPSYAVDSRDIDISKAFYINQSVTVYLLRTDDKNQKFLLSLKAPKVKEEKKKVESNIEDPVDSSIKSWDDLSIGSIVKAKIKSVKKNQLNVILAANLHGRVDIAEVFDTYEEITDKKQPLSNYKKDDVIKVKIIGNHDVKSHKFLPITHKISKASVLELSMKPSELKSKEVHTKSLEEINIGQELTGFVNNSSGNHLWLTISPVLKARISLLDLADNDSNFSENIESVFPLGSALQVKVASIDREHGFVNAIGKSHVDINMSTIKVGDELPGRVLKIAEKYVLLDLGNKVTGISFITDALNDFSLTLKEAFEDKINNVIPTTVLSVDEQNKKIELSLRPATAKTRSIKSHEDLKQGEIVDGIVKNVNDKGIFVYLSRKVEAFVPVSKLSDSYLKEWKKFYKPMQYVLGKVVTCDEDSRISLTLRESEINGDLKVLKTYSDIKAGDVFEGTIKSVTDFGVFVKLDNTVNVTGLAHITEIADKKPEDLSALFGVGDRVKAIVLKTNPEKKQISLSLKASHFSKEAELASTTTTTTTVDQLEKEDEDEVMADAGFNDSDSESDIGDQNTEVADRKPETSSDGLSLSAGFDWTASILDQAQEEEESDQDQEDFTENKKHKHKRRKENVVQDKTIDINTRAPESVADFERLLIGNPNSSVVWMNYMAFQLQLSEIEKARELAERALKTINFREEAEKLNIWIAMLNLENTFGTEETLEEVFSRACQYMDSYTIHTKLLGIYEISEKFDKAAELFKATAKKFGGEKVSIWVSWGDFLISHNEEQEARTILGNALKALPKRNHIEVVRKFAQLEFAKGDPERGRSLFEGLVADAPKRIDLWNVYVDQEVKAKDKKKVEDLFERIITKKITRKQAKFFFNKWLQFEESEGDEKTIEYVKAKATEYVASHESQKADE
UniProt P34241: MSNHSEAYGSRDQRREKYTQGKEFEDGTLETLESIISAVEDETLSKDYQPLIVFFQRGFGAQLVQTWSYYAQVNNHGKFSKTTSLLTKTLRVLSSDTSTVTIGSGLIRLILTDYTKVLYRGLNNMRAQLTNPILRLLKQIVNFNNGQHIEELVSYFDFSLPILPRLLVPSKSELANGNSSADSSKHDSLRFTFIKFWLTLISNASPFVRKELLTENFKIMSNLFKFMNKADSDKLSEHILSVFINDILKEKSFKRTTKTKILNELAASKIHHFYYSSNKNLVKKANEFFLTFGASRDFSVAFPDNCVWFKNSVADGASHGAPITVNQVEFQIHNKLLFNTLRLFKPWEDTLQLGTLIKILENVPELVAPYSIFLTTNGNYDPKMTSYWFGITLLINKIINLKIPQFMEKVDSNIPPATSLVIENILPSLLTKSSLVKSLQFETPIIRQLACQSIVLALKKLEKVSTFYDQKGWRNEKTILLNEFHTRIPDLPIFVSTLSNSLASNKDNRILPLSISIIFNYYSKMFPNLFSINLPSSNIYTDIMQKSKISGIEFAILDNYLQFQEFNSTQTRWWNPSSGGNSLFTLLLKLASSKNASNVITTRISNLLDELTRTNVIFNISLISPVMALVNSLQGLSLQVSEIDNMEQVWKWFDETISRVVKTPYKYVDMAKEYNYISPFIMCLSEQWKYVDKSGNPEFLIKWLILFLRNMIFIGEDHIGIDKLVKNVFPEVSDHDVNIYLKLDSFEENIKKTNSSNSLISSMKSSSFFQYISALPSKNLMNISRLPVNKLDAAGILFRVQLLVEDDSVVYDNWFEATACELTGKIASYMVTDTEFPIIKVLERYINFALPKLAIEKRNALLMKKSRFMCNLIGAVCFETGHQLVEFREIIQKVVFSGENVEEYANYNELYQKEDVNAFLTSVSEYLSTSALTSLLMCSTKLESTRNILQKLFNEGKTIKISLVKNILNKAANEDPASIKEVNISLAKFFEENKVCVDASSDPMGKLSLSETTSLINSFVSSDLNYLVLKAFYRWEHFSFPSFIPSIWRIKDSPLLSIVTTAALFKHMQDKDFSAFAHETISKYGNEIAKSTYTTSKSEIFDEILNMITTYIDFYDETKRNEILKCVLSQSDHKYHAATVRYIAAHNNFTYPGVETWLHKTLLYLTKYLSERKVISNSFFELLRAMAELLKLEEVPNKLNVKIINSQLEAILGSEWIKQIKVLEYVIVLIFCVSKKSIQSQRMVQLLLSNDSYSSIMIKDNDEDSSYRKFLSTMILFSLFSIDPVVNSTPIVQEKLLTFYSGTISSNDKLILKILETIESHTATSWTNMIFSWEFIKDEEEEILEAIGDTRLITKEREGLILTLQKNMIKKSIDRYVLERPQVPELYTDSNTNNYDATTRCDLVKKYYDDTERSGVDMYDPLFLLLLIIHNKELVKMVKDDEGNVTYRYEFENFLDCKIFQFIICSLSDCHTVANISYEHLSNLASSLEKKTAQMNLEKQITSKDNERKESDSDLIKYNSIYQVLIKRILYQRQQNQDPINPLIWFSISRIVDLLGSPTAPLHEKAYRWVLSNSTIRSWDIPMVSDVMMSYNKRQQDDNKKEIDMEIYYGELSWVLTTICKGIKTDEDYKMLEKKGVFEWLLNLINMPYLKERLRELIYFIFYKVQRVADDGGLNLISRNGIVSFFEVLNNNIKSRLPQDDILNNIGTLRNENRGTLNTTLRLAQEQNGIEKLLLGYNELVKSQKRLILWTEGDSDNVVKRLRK
UniProt Q3E757: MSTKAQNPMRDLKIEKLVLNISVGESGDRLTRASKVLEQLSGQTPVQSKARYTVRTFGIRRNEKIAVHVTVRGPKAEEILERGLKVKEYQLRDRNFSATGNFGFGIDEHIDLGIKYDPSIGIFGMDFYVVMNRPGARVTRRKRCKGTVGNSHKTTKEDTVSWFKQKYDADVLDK
UniProt P32324: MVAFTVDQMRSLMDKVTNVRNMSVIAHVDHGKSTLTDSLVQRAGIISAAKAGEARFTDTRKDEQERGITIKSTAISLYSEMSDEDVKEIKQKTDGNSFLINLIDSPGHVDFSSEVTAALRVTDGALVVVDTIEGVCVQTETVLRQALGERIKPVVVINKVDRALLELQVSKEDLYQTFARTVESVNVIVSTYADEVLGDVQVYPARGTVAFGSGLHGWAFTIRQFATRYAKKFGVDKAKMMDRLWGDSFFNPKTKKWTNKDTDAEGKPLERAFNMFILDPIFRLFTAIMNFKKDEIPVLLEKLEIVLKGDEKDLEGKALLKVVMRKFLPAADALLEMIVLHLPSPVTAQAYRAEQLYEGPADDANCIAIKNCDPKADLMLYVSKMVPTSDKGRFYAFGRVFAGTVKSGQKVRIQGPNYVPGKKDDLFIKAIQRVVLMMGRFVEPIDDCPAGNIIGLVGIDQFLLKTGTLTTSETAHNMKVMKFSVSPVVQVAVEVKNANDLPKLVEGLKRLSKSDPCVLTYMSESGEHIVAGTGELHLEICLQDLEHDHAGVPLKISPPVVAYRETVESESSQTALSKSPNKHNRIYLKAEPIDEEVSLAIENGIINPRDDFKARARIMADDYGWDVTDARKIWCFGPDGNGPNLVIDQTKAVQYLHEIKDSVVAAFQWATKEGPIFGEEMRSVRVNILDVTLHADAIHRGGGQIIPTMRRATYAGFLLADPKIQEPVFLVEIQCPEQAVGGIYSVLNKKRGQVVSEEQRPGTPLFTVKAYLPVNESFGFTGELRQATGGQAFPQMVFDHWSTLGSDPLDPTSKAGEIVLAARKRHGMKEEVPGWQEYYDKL
UniProt P15646: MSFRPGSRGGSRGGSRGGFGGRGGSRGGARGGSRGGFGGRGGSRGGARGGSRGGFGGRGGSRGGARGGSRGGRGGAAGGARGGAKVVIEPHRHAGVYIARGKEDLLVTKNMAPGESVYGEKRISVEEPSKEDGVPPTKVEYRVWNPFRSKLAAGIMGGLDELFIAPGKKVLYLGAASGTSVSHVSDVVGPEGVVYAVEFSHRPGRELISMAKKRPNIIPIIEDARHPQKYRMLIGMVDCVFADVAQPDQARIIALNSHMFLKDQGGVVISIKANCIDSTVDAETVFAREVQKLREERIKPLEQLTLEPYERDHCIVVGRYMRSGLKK
UniProt Q12460: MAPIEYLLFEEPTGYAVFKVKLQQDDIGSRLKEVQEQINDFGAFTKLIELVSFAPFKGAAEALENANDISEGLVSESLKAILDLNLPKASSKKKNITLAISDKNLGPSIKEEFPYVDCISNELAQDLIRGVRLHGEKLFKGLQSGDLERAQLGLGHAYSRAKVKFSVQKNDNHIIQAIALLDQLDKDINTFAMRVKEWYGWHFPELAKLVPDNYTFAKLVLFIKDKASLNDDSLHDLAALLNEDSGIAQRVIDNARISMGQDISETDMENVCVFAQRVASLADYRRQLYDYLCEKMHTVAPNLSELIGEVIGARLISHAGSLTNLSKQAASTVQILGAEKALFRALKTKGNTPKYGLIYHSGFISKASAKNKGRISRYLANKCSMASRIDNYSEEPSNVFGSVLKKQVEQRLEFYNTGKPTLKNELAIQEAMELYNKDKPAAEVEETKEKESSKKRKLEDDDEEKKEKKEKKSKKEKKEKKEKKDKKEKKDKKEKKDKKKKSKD
UniProt P14120: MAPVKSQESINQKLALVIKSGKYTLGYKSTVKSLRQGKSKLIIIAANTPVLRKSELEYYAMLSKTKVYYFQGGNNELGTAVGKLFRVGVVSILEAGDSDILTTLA
UniProt P0CX41: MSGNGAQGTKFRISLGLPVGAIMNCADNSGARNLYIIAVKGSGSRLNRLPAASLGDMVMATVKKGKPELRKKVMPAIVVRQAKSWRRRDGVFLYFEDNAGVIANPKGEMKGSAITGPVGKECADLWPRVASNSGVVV
UniProt P10591: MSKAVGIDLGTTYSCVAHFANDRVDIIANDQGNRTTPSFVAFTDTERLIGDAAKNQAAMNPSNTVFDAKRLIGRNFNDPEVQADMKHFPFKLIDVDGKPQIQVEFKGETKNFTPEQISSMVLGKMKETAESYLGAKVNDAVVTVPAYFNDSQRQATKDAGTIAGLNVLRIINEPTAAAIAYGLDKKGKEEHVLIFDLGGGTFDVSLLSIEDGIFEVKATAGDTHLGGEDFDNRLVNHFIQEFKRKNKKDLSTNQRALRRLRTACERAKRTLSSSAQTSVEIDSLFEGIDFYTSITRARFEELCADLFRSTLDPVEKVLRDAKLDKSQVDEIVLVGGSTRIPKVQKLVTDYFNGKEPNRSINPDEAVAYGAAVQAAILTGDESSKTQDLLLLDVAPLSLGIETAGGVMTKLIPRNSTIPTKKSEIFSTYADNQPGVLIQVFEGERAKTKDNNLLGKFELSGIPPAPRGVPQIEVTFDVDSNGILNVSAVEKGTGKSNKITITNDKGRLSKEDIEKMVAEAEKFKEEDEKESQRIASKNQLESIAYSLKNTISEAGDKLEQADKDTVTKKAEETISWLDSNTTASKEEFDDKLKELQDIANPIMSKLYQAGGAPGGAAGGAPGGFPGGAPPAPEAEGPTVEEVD
UniProt P0C0W1: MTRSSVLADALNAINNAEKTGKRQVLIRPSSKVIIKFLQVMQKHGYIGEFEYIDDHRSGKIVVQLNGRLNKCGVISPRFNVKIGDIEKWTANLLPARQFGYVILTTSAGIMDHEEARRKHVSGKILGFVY
UniProt P0CX44: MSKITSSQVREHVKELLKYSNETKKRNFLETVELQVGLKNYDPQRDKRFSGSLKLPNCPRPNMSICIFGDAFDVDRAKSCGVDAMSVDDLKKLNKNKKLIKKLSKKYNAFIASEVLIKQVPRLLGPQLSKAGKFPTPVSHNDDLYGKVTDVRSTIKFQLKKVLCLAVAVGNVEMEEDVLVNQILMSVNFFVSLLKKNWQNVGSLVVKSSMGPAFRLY

Target: Rrp5-HTP (budding yeast) (UniProt Q05022)
Test: affinity purification with mass spectrometry; Rrp5-HTP bound to an IgG column, RNase treatment, brief formaldehyde crosslinking on the column, washing under denaturing conditions (8 M urea), release by brief decrosslinking and SDS; the material migrating above Rrp5 in SDS-PAGE analysed by mass spectrometry; Brr2 as control bait

Row | Molecule | binding
1 | Prp43 (from UniProt P53131 1-767) | binds
2 | Urb1 (from UniProt P34241 1-1764) | binds
3 | Rps31 (from UniProt P05759) | binds
4 | Rpl11 (from UniProt Q3E757 1-174) | binds
5 | Eft1 (from UniProt P32324 1-842) | binds
6 | Nop1 (from UniProt P15646 1-327) | binds
7 | Nop56 (from UniProt Q12460 1-504) | binds
8 | Utp10 (from UniProt P42945 1-1769) | binds
9 | Rps0 (from UniProt P46654 1-252) | binds
10 | Rpl30 (from UniProt P14120 1-105) | binds
11 | Bms1 (protein, UniProt Q08965 1-1183) MEQSNKQHRKAKEKNTAKKKLHTQGHNAKAFAVAAPGKMARTMQRSSDVNERKLHVPMVDRTPEDDPPPFIVAVVGPPGTGKTTLIRSLVRRMTKSTLNDIQGPITVVSGKHRRLTFLECPADDLNAMIDIAKIADLVLLLIDGNFGFEMETMEFLNIAQHHGMPRVLGVATHLDLFKSQSTLRASKKRLKHRFWTEVYQGAKLFYLSGVINGRYPDREILNLSRFISVMKFRPLKWRNEHPYMLADRFTDLTHPELIETQGLQIDRKVAIYGYLHGTPLPSAPGTRVHIAGVGDFSVAQIEKLPDPCPTPFYQQKLDDFEREKMKEEAKANGEITTASTTRRRKRLDDKDKLIYAPMSDVGGVLMDKDAVYIDIGKKNEEPSFVPGQERGEGEKLMTGLQSVEQSIAEKFDGVGLQLFSNGTELHEVADHEGMDVESGEESIEDDEGKSKGRTSLRKPRIYGKPVQEEDADIDNLPSDEEPYTNDDDVQDSEPRMVEIDFNNTGEQGAEKLALETDSEFEESEDEFSWERTAANKLKKTESKKRTWNIGKLIYMDNISPEECIRRWRGEDDDSKDESDIEEDVDDDFFRKKDGTVTKEGNKDHAVDLEKFVPYFDTFEKLAKKWKSVDAIKERFLGAGILGNDNKTKSDSNEGGEELYGDFEDLEDGNPSEQAEDNSDKESEDEDENEDTNGDDDNSFTNFDAEEKKDLTMEQEREMNAAKKEKLRAQFEIEEGENFKEDDENNEYDTWYELQKAKISKQLEINNIEYQEMTPEQRQRIEGFKAGSYVRIVFEKVPMEFVKNFNPKFPIVMGGLLPTEIKFGIVKARLRRHRWHKKILKTNDPLVLSLGWRRFQTLPIYTTTDSRTRTRMLKYTPEHTYCNAAFYGPLCSPNTPFCGVQIVANSDTGNGFRIAATGIVEEIDVNIEIVKKLKLVGFPYKIFKNTAFIKDMFSSAMEVARFEGAQIKTVSGIRGEIKRALSKPEGHYRAAFEDKILMSDIVILRSWYPVRVKKFYNPVTSLLLKEKTEWKGLRLTGQIRAAMNLETPSNPDSAYHKIERVERHFNGLKVPKAVQKELPFKSQIHQMKPQKKKTYMAKRAVVLGGDEKKARSFIQKVLTISKAKDSKRKEQKASQRKERLKKLAKMEEEKSQRDKEKKKEYFAQNGKRTTMGGDDESRPRKMRR | binds
12 | Rrp12 (protein, UniProt Q12754 1-1228) MDQDKVAFLLELEDKLAKIRSQVNSKLENQKHIAIILTAVEENIAGQATNDVSKNIVNYIISFMSLLDQAVDPSTHEIKDIQLASSSTYLLDLIFHYSPKVLLRSKFSEILTKIAPCITAEKANAPLIRAAIGCLESLLIAQDAQAWNNTYDLNVTPKRGLQGILELSLDVRPKVRKRALDAVHAVLLNPPVAPTAEHVAAVFVADFCDKQLAGILNDLSNLSNKQLKAQKTKEDINASVMRSLRLITSVVSTGQWPSSQIEPLCDVLLGVTKSSEQYLVSASFECFESMFKTMAETTISSGLAENKYLRVLDTIFALKPSNVDTLLTKSWIAVVIKGMSTYATHQPLKALRKIPGVFHIMCTYLASETPEVYQAASQCLISILSESVKDDLLLYTPSVDEKVFKNVDEIISQIAKTFIDFLSIRYSHCSREILKILVAAFNKFRYRSNPHFLKSLKIVDTWRVNEEQFMDLRNEIELVIGASISAMGPEMILAEAPLNLDNPSSERPGRAWLLPLIRDYTKNANLATFQNELAPYIKSFQSKFDKVPEESIQLRVFQTIVDQIWSTLPRFCELPMDLRESFTDEFASELSSLLYSEVELRTTICHALKVLAESNVSYAEESSSHNVLLLQRFPISEAQKNIEYLSTKSTNLLAVLFNVYTQTTPNARSYILETIDQYLKITSKEDLEKTFNNVCGLLKNSMNEESSGNVNKEKKKPQLTATLLDLIICMITYLPVSSYSALFSMFSLTVNSADALIQKRAYRIITKLSELKSGSTAVAQFISDIENVMVDSASSVQTSAKAARLTAIKTIVELLPLDHLDFIVRTVAEVILSTKDVNEKSRETAFDTLICMGRKMNEPNGIIKLFQIPGYDPTTPDQSSSISEFFKIISAGLIGESQHMVSSSITGYACLVFEFKNELDSGILMDIYDTIELYLTSNSREIVKSAIGFTKVCVLGLPEELMRPKVPELLLKLLRWSHEHTGHFKAKVKHIIERLIRRFGYDYIEANFPEEDRRLLTNIRKMRNRNKRKDEEVTTGVSDVAATKGSRFMSAFDEAVYGSDEENDNGSDQEENVAGGKMKNGAKQFIVESGDNPLDLLDSQTLAHISSTRPKKFNKNQNRARFNDDAFNFDSEGKLVVKGQPKPSTNVDDPLSAVTSGINAYLEAVKSGPVRGQRNKLKFRKNGKDSDEFGDDDDGEKDSRLMRGRVNQGNKIGKHNKKGPKFKSRKKL | binds
13 | Mak21/Noc1 (protein, UniProt Q12176 1-1025) MSENNGNPLDLSSLRNKISSKLRDNNSKKAKKTHKGKDVKASSNSKKVNEDIRREALALGASEEDLKLIQGLSDDDDAKSEQEFDAVADEDADDKGFKNDLQNFMKNVGFDQHKLEDVDDDDIEEESTSSKESKIPAQEKEHAQSNIASSTIEKTSQESIDNGSEQEENTVEEANLSSDQEPESESAEKEKKEEKDGGLITQTTIISSDKLIIPYDKPWYEIPLDPQVGQNDDVEELSKEQIEKLFERGKQTLEADNQTYYEEFTKDSSQAKFMSQILSDGTLNDKISAVTLLIQDSPLHNTKSLETLVSYCGKKSRNSALQSLNALKDLFLNGLLPNRKLRYFKNQPGLSMMLNKKTLAIFYFEDYLKKLFFRVLEVLEVLSHDPIIHVRLQILNHVFDLLTNQPEQEFNLLRLGVNKIGDIDSKVSSKASYLLLKLEQAHPNMKSIVIDAIVDIALRPNADYHTTYYSVITLNQTILKRSEDSVANKLVKTYFTLFEKFLINTDKDNTNGVVKSNSKSYEEKRKKNFKKGKHGGKSVKIEKTENEVLDEKNSKLFSALLTGINRAFPFAQIPASVYEVHMETLFKITHSSNFNTSIQALVLINQVTVKAKLNSDRYYRTLYESLFDPRLVNSSKQGIYLNLLYKSLKQDALNVERVEAFVKRILQVCSHWLNVGTITGFFFLLIQLAKTVPQIKNLLTNTPVDYEYESDAEEEQGDKDIKRKEYDGRKRDPKFANAEKSSLWEINNFINHFHPTVKTYANAYVTGETEQIAKPDLGLFTLSHFLDRFVYRSAKQTNTARGTSIMQPLFSGSRVNDSVLVKASDIMHDQGPVNTEDWLTKKVEDIKPEDKFFYQYFTTKKTADGKGKKSNKASNFDSDDEMDENEIWSALVKSRPDVEDDSDDSELDFAEDDFSDSTSDDEPKLDAIDDEDAKSEGSQESDQEEGLDEDIFYSFDGEQDNSDKKRSFAESSEEDESSEEEKEEEENKEVSAKRAKKKQRKNMLKSLPVFASADDYAQYLDQDSD | binds
14 | Dbp9 (protein, UniProt Q06218 1-594) MSYEKKSVEGAYIDDSTTFEAFHLDSRLLQAIKNIGFQYPTLIQSHAIPLALQQKRDIIAKAATGSGKTLAYLIPVIETILEYKKTIDNGEENGTLGIILVPTRELAQQVYNVLEKLVLYCSKDIRTLNISSDMSDSVLSTLLMDQPEIIVGTPGKLLDLLQTKINSISLNELKFLVVDEVDLVLTFGYQDDLNKIGEYLPLKKNLQTFLMSATLNDDIQALKQKFCRSPAILKFNDEEINKNQNKLLQYYVKVSEFDKFLLCYVIFKLNLIKGKTLIFVNNIDRGYRLKLVMEQFGIKSCILNSELPVNSRQHIVDQFNKNVYQLLIATDDTEYIKEEDDEIEEGHNTENQEEKSLEGEPENDKKPSKKKKVQVKKDKEYGVSRGVDFKNVACVLNFDLPTTAKSYVHRVGRTARGGKTGTAISFVVPLKEFGKHKPSMLQTAKKDERILSRIIKQQSKLGLELQPYKFDQKQVEAFRYRMEDGFRAVTQVAIREARVKELKQELLASEKLKRHFEENPKELQSLRHDKELHPARVQQHLKRVPDYLLPESARGNGTKVKFVPFHNAKKRHSHKKGRVSKPKNGKVDPLKNFK | binds
15 | Rps11 (protein, UniProt P0CX47 1-156) MSTELTVQSERAFQKQPHIFNNPKVKTSKRTKRWYKNAGLGFKTPKTAIEGSYIDKKCPFTGLVSIRGKILTGTVVSTKMHRTIVIRRAYLHYIPKYNRYEKRHKNVPVHVSPAFRVQVGDIVTVGQCRPISKTVRFNVVKVSAAAGKANKQFAKF | binds

Further lines, results first:

Row | binding | Molecule
16 | binds | Rpl23 (from UniProt P0CX41 1-137)
17 | binds | Ssa1 (from UniProt P10591 1-642)
18 | binds | Rps22 (from UniProt P0C0W1 1-130)
19 | binds | Ded1 (from UniProt P06634 1-604)
20 | binds | Nop58 (from UniProt Q12499 1-511)
21 | binds | Rpl1 (from UniProt P0CX44 1-217)
22 | binds | Tef1 (from UniProt P02994 1-458)
23 | binds | Rok1 (protein, UniProt P45818 1-564) MDIFRVLTRGASVKKESGPKAKAADYSVINGNDENHKEDNNESQIVKELDFFRNKRIISKVEDDREKTTENDSPNKEEKSGNDDGLIKPVITNTVEASALRKSYKGNVSGIDIPLPIGSFEDLISRFSFDKRLLNNLIENGFTEPTPIQCECIPVALNNRDVLACGPTGSGKTLAFLIPLVQQIIDDKQTAGLKGLIISPTKELANQIFIECFKLSYKIFLEKKRPLQVALLSKSLGAKLKNKVVSDKKYDIIISTPLRLIDVVKNEALDLSKVKHLIFDEADKLFDKTFVEQSDDILSACREPSLRKAMFSATIPSNVEEIAQSIMMDPVRVIIGHKEAANTNIEQKLIFCGNEEGKLIAIRQLVQEGEFKPPIIIFLESITRAKALYHELMYDRINVDVIHAERTALQRDRIIERFKTGELWCLICTDVLARGIDFKGVNLVINYDVPGSSQAYVHRIGRTGRGGRSGKAITFYTKQDSVAIKPIINVMKQSGCEVSEWMDKMAKMTRKEKESIKNGKAHKERKQITTVPKMDKAKRRRQQEMIAASKRRKNEELSKKHFSK
